At least one compound was matched to its structure with a doubt left.
Tests used:
[1] = test system: melanoma cultures M130219, M130227, M160915, M121224; assay: Viability rescue by antioxidant NAC; format: cell-based, human; conditions: 250 nM or 500 nM compound with NAC 1 mM (5 mM for Elesclomol), 72h
Procedure: Four different melanoma cultures harbouring either NRAS mutation (M130219, M130227, M160915) or a double NRAS/BRAF mutation (M121224) were treated with 250 nM or 500 nM of Neuocuproine alone or in combination with 1 mM of NAC for 72h. Viability was measured with a standard Resazaurin-based viability assay and % of viable cells were calculated in relation to vehicle treated cells. • B. Viability after Elesclomol treatment is rescued by the addition of an antioxidant NAC (N-acetyl-Lcystein). […] Viability was measured with a standard Resazaurin-based viability assay and % of viable cells were calculated in relation to vehicle treated cells. • C. […] Viability was measured with a standard Resazaurin-based viability assay and % of viable cells were calculated in relation to vehicle treated cells. • D. Viability after DDC treatment is rescued by the addition of an antioxidant NAC (N-acetyl-Lcystein). […] Viability was measured with a standard Resazaurin-based viability assay and % of viable cells were calculated in relation to vehicle treated cells.
N-acetyl cysteine is an antioxidant, which is scavenging oxidative effects produced by ROS and therefore it is commonly used for the identification of ROS inducers. […] Melanoma cells were incubated for 72 hours 37° C./5% CO2 and % viability was calculated in relation to vehicle treated cells. […]

M130227 melanoma cells = assay: Growth inhibition in copper-depleted (trientine) medium; format: cell-based, human; conditions: trientine 1 mM medium, neocouproine 500 nM, elesclomol 100 nM, Disulfiram 500 nM, DDC 500 nM, 72 hours
Procedure: Trientine was mixed with cell culture medium to a final concentration of 1 mM and incubated at room temperature for 1 hour. Melanoma cells were seeded in 96-well plates (cell line M130227) an let to adhere overnight. In some wells, medium was replaced with trientine-containing medium (copper-depleted). Melanoma cells were treated with neocouproine (500 nM), elesclomol (100 nM), Disulfiram (500 nM) or DDC (500 nM). Melanoma cells were incubated in the cell culture incubator at 37° C./5% CO2 for additional 72 hours. Cell viability assay was performed as described in Example 1. The % of growth inhibition (compared to DMSO treated control wells) was plotted with GraphPad Prims software.

SMILES: CCN(CC)C(=S)SSC(=S)N(CC)CC [Disulfiram]
- viability in combination with antioxidant NAC [1]: can be rescued
- growth inhibition after depletion of copper with Trientine (M130227 melanoma cells): can be rescued
